PubChem BioAssay AID1259425, University of Nebraska Medical Center | 2018
Shown is an unselected part of about 14,000 deposited reagents. A reagent listed more than once was tested more than once; the source does not tell the runs apart. Further read-outs or replicates are left out here. Reagent sequences are not shown. Not given: the time to read-out.

Aim: 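Find knockdowns that reproduce the gene expression pattern seen when KSR1 is lost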 (primary screen)
Cells: HCT116 human colon cancer cells
Knock-down reagent: siRNA pool against human genes, 50 nM siRNA
Read-out: 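mRNA of six signature genes measured together by branched-DNA assay after 50 nM siRNA pool, blank removed, divided by geometric mean of two housekeeping genes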
Scale: BNIP3L mRNA: higher = more BNIP3L transcript after knockdown

target gene | BNIP3L mRNA, set 1
ODAD2 (outer dynein arm docking complex subunit 2) | 0.0717
CA9 (carbonic anhydrase 9) | 0.0941
PCDHGC3 (protocadherin gamma subfamily C, 3) | 0.129
CPAMD8 (C3 and PZP like alpha-2-macroglobulin domain containing 8) | 0.174
PLPPR1 (phospholipid phosphatase related 1) | 0.129
MOCS3 (molybdenum cofactor synthesis 3) | 0.184
ANAPC1 (anaphase promoting complex subunit 1) | 0.091
SEC23B (SEC23 homolog B, COPII component) | 0.256
CLASRP (CLK4 associating serine/arginine rich protein) | 0.157
LAP3 (leucine aminopeptidase 3) | 0.0869
ARID5B (AT-rich interaction domain 5B) | 0.109
NARS1 (asparaginyl-tRNA synthetase 1) | 0.111
SCAP (SREBF chaperone) | 0.0746
RDH5 (retinol dehydrogenase 5) | 0.131
CNNM2 | 0.0884
KLF16 (KLF transcription factor 16) | 0.0602
COL1A1 (collagen type I alpha 1 chain) | 0.0681
FBXO3 (F-box protein 3) | 0.033
ERAS (ES cell expressed Ras) | 0.0995
PPP1R11 (protein phosphatase 1 regulatory inhibitor subunit 11) | 0.0765
ZNF17 (zinc finger protein 17) | 0.166
BTD (biotinidase) | 0.137
FBXL17 (F-box and leucine rich repeat protein 17) | 0.101
TAS2R38 (taste 2 receptor member 38) | 0.0441
HAND2 (heart and neural crest derivatives expressed 2) | 0.0866
ACTR8 (actin related protein 8) | 0.0976
HJURP (Holliday junction recognition protein) | 0.181
GRK1 (G protein-coupled receptor kinase 1) | 0.0651
GRK1 (G protein-coupled receptor kinase 1) | 0.0883
ART4 (ADP-ribosyltransferase 4 (inactive) (Dombrock blood group)) | 0.0529
KIF3B (kinesin family member 3B) | 0.0647
CENPO (centromere protein O) | 0.164

Continued (6 carried over from the part before).
target gene | BNIP3L mRNA, set 1
HJURP (Holliday junction recognition protein) | 0.181
GRK1 (G protein-coupled receptor kinase 1) | 0.0651
GRK1 (G protein-coupled receptor kinase 1) | 0.0883
ART4 (ADP-ribosyltransferase 4 (inactive) (Dombrock blood group)) | 0.0529
KIF3B (kinesin family member 3B) | 0.0647
CENPO (centromere protein O) | 0.164
HNRNPK (heterogeneous nuclear ribonucleoprotein K) | 0.139
RUFY1 (RUN and FYVE domain containing 1) | 0.245
RHOT1 (ras homolog family member T1) | 0.0893
EPG5 (ectopic P-granules 5 autophagy tethering factor) | 0.279
ITGB1BP1 (integrin subunit beta 1 binding protein 1) | 0.0755
RPF1 (ribosome production factor 1 homolog) | 0.0808
GRID1 (glutamate ionotropic receptor delta type subunit 1) | 0.102
SLC6A14 | 0.0816
DCXR (dicarbonyl and L-xylulose reductase) | 0.093
GUCD1 (guanylyl cyclase domain containing 1) | 0.2
GNRH1 (gonadotropin releasing hormone 1) | 0.0722
FKBP7 (FKBP prolyl isomerase 7) | 0.139
GRIK2 (glutamate ionotropic receptor kainate type subunit 2) | 0.0695
KCNJ2 (potassium inwardly rectifying channel subfamily J member 2) | 0.0761
PHTF2 (putative homeodomain transcription factor 2) | 0.0994
CXCR3 (C-X-C motif chemokine receptor 3) | 0.154
RASSF9 (Ras association domain family member 9) | 0.0898
WWC1 (WW and C2 domain containing 1) | 0.132
